This is one part of the list. These are raw signals, not scaled to a control.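 Primary screen: polymyxin B was added at a level permeabilizing Salmonella outer membranes while sparing inner membranes. DMSO wells, both with and without polymyxin B, established maximum growth. Plate-to-plate variation meant each plate was ranked on its own, and the lowest-OD600 compounds were selected as hits.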
System: Salmonella enterica serovar Typhimurium SL1344
Assay: bacterial growth OD600 after 18 h with compound and polymyxin B; higher = more bacterial growth (less inhibition)
Settings: 50 µM, Mueller-Hinton broth

SMILES | bacterial growth OD600 (polymyxin B 1 µg/mL) | bacterial growth OD600 (polymyxin B 0.75 µg/mL)
O[C@H]1CN(C/C=C/c2ccccc2)C[C@@H]1N1CCN(c2ccccn2)CC1 | 0.964 | –
CCC(C)C(=O)NCC1Cc2cccc(-c3ncccc3C)c2O1 (centres undefined) | – | 0.795
CN(C)CCOc1cccc(CN(Cc2ccccn2)C(=O)Cc2ccc(F)cc2)c1 | – | 0.842
C=CC[C@@H]1CC=C[C@@H](c2ccccc2)N1C(=O)CCC1(Cc2ccc(SC)cc2)CCC(=O)N1 (some centres undefined) | – | 0.001
COc1cc(NC(=O)CCC2CCCN(C(=O)CCN3CCCO3)C2)cc(OC)c1 (centres undefined) | 1 | –
Cc1nonc1C1CCCN1C(=O)c1ccc2nc(C3CCCCC3)oc2c1 (centres undefined) | 0.678 | –
CCC(O)C1CCN(C(=O)c2cc(COc3ccc(F)cc3F)on2)CC1 (centres undefined) | 0.965 | –
COCC1CCN(C(=O)CC(c2ccccc2)c2ccccc2Cl)CC1 (centres undefined) | – | 0.254
CCCNCC1(O)CCCN(CC(C)(C)C)C1=O (centres undefined) | – | 0.829
Cc1cc(C)n(CCC(=O)N2CCC(n3nccc3NC(=O)CC(C)C)CC2)n1 | 0.904 | –
COCCn1cc(C(=O)NCC2(c3ccccc3)CCCC2)c(=O)c(C(=O)N2C[C@@H](C)O[C@@H](C)C2)c1 | – | 0.793
Cc1c(C(C)NC2CCCC2)cnn1-c1ccc(F)cc1F (centres undefined) | 0.938 | –
CCC(C)C(=O)NCC1Cc2cc(C)cc(-c3cc(C(C)=O)ccc3F)c2O1 (centres undefined) | – | 0.718
Cc1ccc(-n2cccn2)c(CN2CCC(n3nccc3NC(=O)C3CC3)CC2)c1 | 0.857 | –
O=C(NC1CCCN(Cc2ccccc2F)C1)C1=CCCC1 (centres undefined) | 1.04 | –
CCCCC1CN(CCC(=O)NC(C)Cc2cncs2)Cc2ccccc2O1 (centres undefined) | – | 0.817
COc1cc(NC(=O)CCC2CCCN(C(=O)CCN3CCCC3=O)C2)cc(OC)c1 (centres undefined) | 0.914 | –
O=C(c1cn[nH]c1)N1CCC(C2CCN(Cc3ccc(Cl)cc3)C2)CC1 (centres undefined) | 0.928 | –
CN1CCCCC1CCNC(=O)c1ccc(N2CCN(CC3CC3)CC2)nc1 (centres undefined) | – | 0.826

4 entries from above, reformatted:

| SMILES | bacterial growth OD600 (polymyxin B 1 µg/mL) | bacterial growth OD600 (polymyxin B 0.75 µg/mL) |
| --- | --- | --- |
| Cc1nonc1C1CCCN1C(=O)c1ccc2nc(C3CCCCC3)oc2c1 (centres undefined) | 0.678 | – |
| CCC(O)C1CCN(C(=O)c2cc(COc3ccc(F)cc3F)on2)CC1 (centres undefined) | 0.965 | – |
| COCC1CCN(C(=O)CC(c2ccccc2)c2ccccc2Cl)CC1 (centres undefined) | – | 0.254 |
| CCCNCC1(O)CCCN(CC(C)(C)C)C1=O (centres undefined) | – | 0.829 |

— the supplement of paper PMC12889115
